{
  "source": "paper PMC9268100",
  "about": "“Chelation of Theranostic Copper Radioisotopes with S-Rich Macrocycles: From Radiolabelling of Copper-64 to In Vivo Investigation” (Molecules, 2022)",
  "key": {"[1]": {"test": "Copper-64 radiolabelling (radiochemical incorporation by radio-UHPLC/radio-TLC)", "conditions": "for labelling efficiency: 1 MBq/nmol; for fold lower molar activity required for quantitative incorporation: versus NODAGA-RGD (10 MBq/nmol)", "method": "Ligand stock solutions were prepared in ultrapure water at 10^−3 M and were kept in the freezer when not used. Serial dilutions were performed to obtain solutions with ligand concentrations ranging from 1.0⋅10^−4 M to 1.0⋅10^−7 M in ultrapure water. Diluted solutions were freshly prepared from stock solutions before each experiment.\nRadiolabelling were performed by adding [^64Cu]CuCl2 diluted in 0.05 M HCl (~2.5 MBq, 2 μL) to an aliquot of ligand solution (20 μL) mixed with 0.05 M HCl + 0.5 M sodium acetate 5:1 v/v ratio (98 μL and 20 μL, respectively). The final pH was equal to 4.5. In the experiments performed at pH 7, 1.0 M sodium phosphate buffer (100 μL) was used instead of sodium acetate buffer. The reaction mixtures were allowed to react for 10 min at RT or heated to 90 °C. Different ligand concentrations were screened, which correspond to the following molar activities: 2 × 10^−3 M (0.01 MBq/nmol), 2·10^−4 M (0.1 MBq/nmol), 2 × 10^−5 M (1 MBq/nmol), 8 × 10^−6 M (2.5 MBq/nmol), 4·× 10^−6 M (5 MBq/nmol), 2·× 10^−6 M (10 MBq/nmol), 8·× 10^−7 M (25 MBq/nmol), 4·× 10^−7 M (50 MBq/nmol), 2·× 10^−7 M (100 MBq/nmol), 8·× 10^−8 M (250 MBq/nmol) and 4·× 10^−8 M (500 MBq/nmol). All measurements were performed in triplicates.\nThe reaction progress was monitored by radio-ultra-high-performance liquid chromatography (UHPLC) or radio-thin layer chromatography (TLC). UHPLC was performed using an Acquity system (Waters, Italy) equipped with a reversed-phase C18 column (1.7 μm, 2.1 mm × 150 mm), an Acquity TUV detector (Waters, Milan, Italy) and a Herm LB 500 radiochemical detector (Berthold Technologies, Milan, Italy). 0.1% Trifluoroacetic acid in water (A) and acetonitrile (B) composed the mobile phase. The elution gradient included three stages. A was kept constant to 5% for 2 min; then a 5-min gradient, from 5 to 25% of A, was used; finally, the initial condition was restored in 2 min. A flow rate of 0.35 mL/min was employed. The [^64Cu]Cu^2+ complexes were retained at characteristic retention time (tR) equal to: ~6.9 min for [^64Cu][Cu(DO4S)]^2+, ~5.8 min for [^64Cu][Cu(DO3S)]^2+, ~6.8 min for [^64Cu][Cu(DO3SAm)]^2+, ~4.0 min for [^64Cu][Cu(DO2A2S)], ~6.8 min for [^64Cu][Cu(TRI4S)]^2+ and ~6.7 min for [^64Cu][Cu(TE4S)]^2+. Free [^64Cu]Cu^2+ eluted at tR~1 min.\nTLC silica gel 60 F254 plates, developed using a mixture of 10% ammonium acetate and methanol (1:1 v/v ratio, pH 5.5), were used as stationary phase with DO2A2S, DOTA and NODAGA-RDG [47]. Under these conditions, the free [^64Cu]Cu^2+ remains at the baseline (retention factor, Rf = 0) while the [^64Cu]Cu^2+ complexes migrate with the liquid phase (Rf~0.6 for [^64Cu]Cu-NODAGA-RDG and Rf~0.4 for [^64Cu][Cu(DO2A2S)]). Silica gel 60 RP-18 F254S plates were employed as stationary phase and sodium citrate (1 M, pH 4) as eluent with DO4S, TRI4S and TE4S. Under these conditions, the unbound [^64Cu]Cu^2+ migrates with the solvent front (Rf = 1) while the [^64Cu]Cu^2+ complexes remain at the baseline (Rf = 0).\nTLC plates were analyzed using a Cyclone Plus Storage Phosphor System (Perkin Elmer) after exposure to a super-resolution phosphor screen (Type MS, Perkin Elmer, Waltham, MA, USA). All the data were processed with OptiQuant software (version 5.0, Perkin Elmer Inc., Waltham, MA, USA)."}, "[2]": {"test": "Metal competition assay (2:1 metal-to-ligand excess of Zn^2+ or Ni^2+)", "conditions": "0.5 MBq/nmol, pH 4.5, RT, 10 min; for Labelling efficiency in the presence of Ni^2+: 2-fold molar excess of Ni^2+ with respect to the chelator; for Labelling efficiency in the presence of Zn^2+: 2-fold molar excess of Zn^2+ with respect to the chelator", "method": "Competitions studies with DOTA were performed by labelling [^64Cu]Cu^2+ with chelators (0.5 MBq/nmol, pH 4.5 or pH 7, RT, 10 min) in the presence of a 1:1 DOTA-to-ligand ratio. Metal competition studies were performed by adding the ligand (0.5 MBq/nmol, pH 4.5, RT, 10 min) in a mixture containing [^64Cu]Cu^2+ and a 2:1 metal-to-ligand excess of Ni^2+ or Zn^2+. Competition assays among the chelators were carried out by mixing a solution containing equimolar amounts of chelators with [^64Cu]Cu^2+ (0.5 MBq/nmol, pH 4.5, RT). The reaction mixtures were analyzed by UHPLC, using the method described above."}, "[3]": {"conditions": "10 MBq/nmol, RT, pH 4.5, 10 min"}, "[4]": {"conditions": "molar activities >25 MBq/nmol, RT, pH 4.5, 10 min"}},
  "data": [
    {"compound": "CSCCN1CCCN(CCSC)CCN(CCSC)CCCN(CCSC)CC1", "note": "[TE4S, 1,4,8,11-tetrakis[2-(methylsulfanyl)ethyl]-1,4,8,11-tetrazacyclotetradecane]", "values": [
      {"measurement": "[^64Cu]Cu^2+ incorporation", "setting": "[1]; 25 MBq/nmol, 70 °C, pH 7, with labelling by-products", "result": 74, "unit": "%"},
      {"measurement": "[^64Cu]Cu^2+ incorporation (labelling efficiency)", "setting": "[1]; 25 MBq/nmol, RT, pH 7, 10 min", "result": 24, "unit": "%"},
      {"measurement": "[^64Cu]Cu^2+ incorporation", "setting": "[1]; highest considered chelator concentration, RT, pH 7, 10 min", "result": "~ 40%"}
    ]},
    {"compound": "CSCCN1CCNCCN(CCSC)CCN(CCSC)CC1", "note": "[DO3S, 1,4,7-tris[2-(methylsulfanyl)ethyl]-1,4,7,10-tetraazacyclododecane]", "values": [
      {"measurement": "labelling efficiency", "setting": "[1]; RT, pH 7", "result": "> 90", "unit": "%"},
      {"measurement": "[^64Cu]Cu^2+ incorporation", "setting": "[1]; [3]", "result": 20, "unit": "%"},
      {"measurement": "molar activity up to which [^64Cu]Cu^2+ is quantitatively incorporated", "setting": "[1]; 90 °C, pH 4.5, 10 min", "result": 2, "unit": "MBq/nmol"},
      {"measurement": "fold lower molar activity required for quantitative incorporation", "setting": "[1]; RT, pH 4.5, 10 min", "result": 1000, "unit": "fold"},
      {"measurement": "[^64Cu]Cu^2+ incorporation", "setting": "[1]; [4]", "result": "no radiometal incorporation"}
    ]},
    {"compound": "CSCCN1CCNCCN(CCSC)CCN(CCSC)CC1.[64Cu+2]", "note": "[[^64Cu][Cu(DO3S)]^2+]", "values": [
      {"measurement": "Labelling efficiency in the presence of Ni^2+", "setting": "[2]", "result": "91 ± 2", "unit": "%"},
      {"measurement": "Labelling efficiency in the presence of Zn^2+", "setting": "[2]", "result": "95 ± 2", "unit": "%"}
    ]},
    {"compound": "CNC(=O)CN1CCN(CCSC)CCN(CCSC)CCN(CCSC)CC1.[64Cu+2]", "note": "[[^64Cu][Cu(DO3SAm)]^2+]", "values": [
      {"measurement": "Labelling efficiency in the presence of Ni^2+", "setting": "[2]", "result": "99 ± 2", "unit": "%"},
      {"measurement": "Labelling efficiency in the presence of Zn^2+", "setting": "[2]", "result": "90 ± 2", "unit": "%"}
    ]},
    {"compound": "CSCCN1CCN(CC(=O)O)CCN(CCSC)CCN(CC(=O)O)CC1", "note": "[DO2A2S, 1,7-bis[2-(methylsulfanyl)ethyl]-4,10,diacetic acid-1,4,7,10-tetraazacyclododecane]", "values": [
      {"measurement": "[^64Cu]Cu^2+ incorporation", "setting": "[1]; [3]", "result": "~ 82%"},
      {"measurement": "[^64Cu]Cu^2+ incorporation", "setting": "[1]; 25 MBq/nmol, RT, pH 4.5, 10 min", "result": "~ 58%"},
      {"measurement": "molar activity up to which [^64Cu]Cu^2+ is quantitatively incorporated", "setting": "[1]; 90 °C, pH 4.5, 10 min", "result": 50, "unit": "MBq/nmol"},
      {"measurement": "[^64Cu]Cu^2+ incorporation", "setting": "[1]; 100 MBq/nmol, RT, pH 7, 10 min", "result": "52 ± 8", "unit": "%"},
      {"measurement": "[^64Cu]Cu^2+ incorporation", "setting": "[1]; 500 MBq/nmol, RT, pH 7, 10 min", "result": "9 ± 2", "unit": "%"},
      {"measurement": "molar activity up to which [^64Cu]Cu^2+ is quantitatively incorporated", "setting": "[1]; RT, pH 4.5, 10 min", "result": 5, "unit": "MBq/nmol"},
      {"measurement": "molar activity up to which [^64Cu]Cu^2+ is quantitatively incorporated", "setting": "[1]; RT, pH 7, 10 min", "result": 50, "unit": "MBq/nmol"},
      {"measurement": "[^64Cu]Cu^2+ incorporation", "setting": "[1]; molar activity >100 MBq/nmol, RT, pH 4.5, 10 min", "result": "below 10%"}
    ]},
    {"compound": "1,4,7-tris[2-(methylsulfanyl)ethyl]-10-acetamido-1,4,7,10-tetraazacyclododecane [DO3SAm]", "values": [
      {"measurement": "labelling efficiency", "setting": "[1]; RT, pH 7", "result": "> 90", "unit": "%"},
      {"measurement": "molar activity up to which [^64Cu]Cu^2+ is quantitatively incorporated", "setting": "[1]; 90 °C, pH 4.5, 10 min", "result": 2, "unit": "MBq/nmol"},
      {"measurement": "[^64Cu]Cu^2+ complexation", "setting": "[1]; highest ligand concentration 2 × 10^−3 M (0.01 MBq/nmol), RT, pH 4.5", "result": "not able to complex"}
    ]},
    {"compound": "CSCCN1CCCN(CCSC)CCN(CCSC)CCN(CCSC)CC1", "note": "[TRI4S, 1,4,7,10-tetrakis[2-(methylsulfanyl)ethyl]-1,4,7,10-tetrazacyclotridecane]", "values": [
      {"measurement": "[^64Cu]Cu^2+ incorporation (labelling efficiency)", "setting": "[1]; 25 MBq/nmol, RT, pH 7, 10 min", "result": "~ 75%"},
      {"measurement": "[^64Cu]Cu^2+ incorporation", "setting": "[1]; 500 MBq/nmol, RT, pH 7, 10 min", "result": 0, "unit": "%"},
      {"measurement": "molar activity up to which [^64Cu]Cu^2+ is quantitatively incorporated", "setting": "[1]; RT, pH 7, 10 min", "result": 10, "unit": "MBq/nmol"}
    ]},
    {"compound": "CSCCN1CCN(CC(=O)[O-])CCN(CCSC)CCN(CC(=O)[O-])CC1.[64Cu+2]", "note": "[[^64Cu][Cu(DO2A2S)]]", "values": [
      {"measurement": "Labelling efficiency in the presence of Ni^2+", "setting": "[2]", "result": "73 ± 3", "unit": "%"},
      {"measurement": "Labelling efficiency in the presence of Zn^2+", "setting": "[2]", "result": "64 ± 5", "unit": "%"}
    ]},
    {"compound": "CSCCN1CCN(CCSC)CCN(CCSC)CCN(CCSC)CC1", "note": "[DO4S, 1,4,7,10-Tetrakis[2-(methylsulfanyl)ethyl]-1,4,7,10-tetraazacyclododecane]", "values": [
      {"measurement": "[^64Cu]Cu^2+ incorporation", "setting": "[1]; [3]", "result": 40, "unit": "%"},
      {"measurement": "[^64Cu]Cu^2+ incorporation (labelling efficiency)", "setting": "[1]; 25 MBq/nmol, RT, pH 7, 10 min", "result": "86 ± 14", "unit": "%"},
      {"measurement": "molar activity up to which [^64Cu]Cu^2+ is quantitatively incorporated", "setting": "[1]; 90 °C, pH 4.5, 10 min", "result": 10, "unit": "MBq/nmol"},
      {"measurement": "fold lower molar activity required for quantitative incorporation", "setting": "[1]; RT, pH 4.5, 10 min", "result": 10, "unit": "fold"},
      {"measurement": "molar activity up to which [^64Cu]Cu^2+ is quantitatively incorporated", "setting": "[1]; RT, pH 7, 10 min", "result": 10, "unit": "MBq/nmol"},
      {"measurement": "[^64Cu]Cu^2+ incorporation", "setting": "[1]; [4]", "result": "no radiometal incorporation"}
    ]},
    {"compound": "CSCCN1CCN(CCSC)CCN(CCSC)CCN(CCSC)CC1.[64Cu+2]", "note": "[[^64Cu][Cu(DO4S)]^2+]", "values": [
      {"measurement": "Labelling efficiency in the presence of Ni^2+", "setting": "[2]", "result": "100 ± 2", "unit": "%"},
      {"measurement": "Labelling efficiency in the presence of Zn^2+", "setting": "[2]", "result": "100 ± 1", "unit": "%"}
    ]},
    {"compound": "CSCCN1CCCN(CCSC)CCN(CCSC)CCN(CCSC)CC1.[64Cu+2]", "note": "[[^64Cu][Cu(TRI4S)]^2+]", "values": [
      {"measurement": "Labelling efficiency in the presence of Ni^2+", "setting": "[2]", "result": "100 ± 1", "unit": "%"},
      {"measurement": "Labelling efficiency in the presence of Zn^2+", "setting": "[2]", "result": "100 ± 1", "unit": "%"}
    ]}
  ]
}
